Test results published in patent publication US12514805B2, “Composition for suppressing skin irritation or inhibiting sebum secretion” (AMOREPACIFIC CORPORATION, priority 2022, dated 2026).
At least one structure is not confirmed: it was looked up by name or label, or the drawing left a doubt.

System: SREBP1, SPERBP2, FAS, and ACACA
Test: Comparison of retinoic acid signal transduction pathway modifiers: sebum-related gene expression in sebaceous gland cells
Type: cell-based, human
Experimental: Primary sebocyte and human sebocyte complete medium were purchased from Celprogen and used.
After that, 1 ml of Trizol (Invitrogen) was added to the cells, and RNA was isolated from the cells according to the RNA isolation method (Invitrogen). The RNA was quantified using a UV detector (HEWLETT PACKARD) at 260 nm and subject to RT-PCR (reverse transcription-polymerase chain reaction).
Taqman probes were used for genetic analysis of SREBP1(Hs02561944_s1), SREBP2(Hs01081781_m1), fatty acid synthase(FAS: Hs01005622_m1), Acetyl-CoA Carboxylase(ACACA: Hs01046047_m1) for each sample, and normalization was performed with respect to the complementary gene RPL13A (Hs04194366_g1), and the result is shown in FIG. 4.

Q: Which “effect on sebum-related gene expression (SREBP1, SPERBP2, FAS, ACACA)” value (sebaceous gland cells treated with 1 μM and 10 μM of each material, FIG. 5) does the source give for `CC1=C(/C=C/C(C)=C/C=C/C(C)=C/C(=O)O)C(C)(C)CCC1` [retinoic acid, reference compound] here?
A: The value was “effect of suppressing sebum-related gene expression”.

Q: And the “gene expression level compared to treatment with Seletinoid G (1 μM)” value (sebaceous gland cells, 1 μM)?
A: Its value is “further lowered”.
